## Primary screen of a compound library

The values are deposited in ChEMBL (CHEMBL3988442, “University of Dundee, Small-Polar-MMV Screening Library” (2021)).

Mtb growth Cornell: 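Whole-cell assay for inhibitors of Mycobacterium tuberculosis growth, labelled Cornell in the record; the read-out is not stated. The concentration is filed as 10 mM, unlikely as a test dose, so the dose is not known. The record gives no direction; compounds strong in two other growth screens of this library score well above the rest, so higher reads as stronger inhibition. Of about 53,000 compounds tested this way, about 900 (1.7%) reached 50% or more in at least one test.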
Mtb heat-shock: 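Assay on Mycobacterium tuberculosis, filed only as a heat shock assay from Cornell; the read-out is not stated. The concentration is filed as 10 mM, unlikely as a test dose, so the dose is not known. Direction is inferred from retests: higher values go with stronger inhibition. Size under these conditions: about 69,000 compounds, about 930 of them at 50% or above in at least one test.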

Results are given as percent effect. How 0% and 100% were set is not recorded. Most values in the screen are low, and negative values occur. This is an unselected part of the compounds tested. A dash means the value is not listed here; it may have been measured.

Result for N#CCCNC(=O)CN1CCC(c2cc3ccccc3[nH]2)CC1 was Mtb growth Cornell: 14.59%; Mtb heat-shock: -11.73%. Result for CN(CC(=O)N1CCCC1)C(=O)c1ccccc1F was Mtb heat-shock: -1.273%. With Cc1cnc(N2CCCOC(CN3CCCCC3)C2)nc1 (stereo not shown) the screen gave Mtb growth Cornell: 9.453%; Mtb heat-shock: 1.549%. COCC(=O)N1CCN(C(C)C(=O)NC(C)C)CC1 (stereo not shown) read Mtb growth Cornell: -66.34%; Mtb heat-shock: -13.13%.

For Cc1cc(CN(C)C(=O)C2CC(c3cccc(F)c3)=NO2)no1 (stereo not shown) the result was Mtb growth Cornell: 14.59%; Mtb heat-shock: -5.558%. CN(CC(=O)Nc1cc(-n2nnnc2C2CC2)ccc1F)C1CCC1 gave Mtb growth Cornell: 34.7%; Mtb heat-shock: 7%. CN(C)C(=O)N1CCN(c2ccc3ccc(C(=O)NC4CC4)cn23)CC1 gave Mtb growth Cornell: -59.18%; Mtb heat-shock: -6.605%. Cn1ncc(NC(=O)c2noc3c2CCCC3)c1C(N)=O read Mtb growth Cornell: -2.704%; Mtb heat-shock: -1.866%.

For [H][C@@]12CS(=O)(=O)C[C@]1([H])N(C(=O)c1ccc3ccccc3n1)CCN2CCC the result was Mtb heat-shock: 2.321%. O=C(c1ccoc1)N1CCOCC2(CCN(Cc3cccs3)C2)C1 (stereo not shown) read Mtb growth Cornell: 38.69%; Mtb heat-shock: -8.275%. For O=C(Cc1ccc(F)cc1F)NCC(=O)Nc1ccccn1 the result was Mtb growth Cornell: 10.69%; Mtb heat-shock: -13.47%. Result for Fc1ccc(Cc2cccc(C3CCN(C4CCOCC4)CC3)n2)cc1 was Mtb growth Cornell: 11.13%; Mtb heat-shock: 3.471%.

[H][C@]12CC[C@]([H])(CN(c3ncccn3)C1)N(CCC(=O)NCc1ccco1)C2 gave Mtb growth Cornell: -4.53%; Mtb heat-shock: -2.991%. With CCNC(=O)NCc1ccc(CN2CCCC(C)C2)cc1 (stereo not shown) the screen gave Mtb heat-shock: -6.706%. CNC(=O)CC1COCCN1C(=O)C1(c2ccc(Cl)cc2)CCC1 (stereo not shown) gave Mtb growth Cornell: 3.374%; Mtb heat-shock: -0.9851%. Result for O=C(O)C(F)(F)F.[H][C@@]12CCN(Cc3ccccn3)C[C@@]1([H])O[C@H](C(=O)N1CCCO1)C2 was Mtb growth Cornell: 33.17%; Mtb heat-shock: -12.91%.

With Cc1ccc(CN2CCC3(CC(=O)N(c4cccc(F)c4)C3)C2)o1.O=C(O)C(F)(F)F (stereo not shown) the screen gave Mtb growth Cornell: 17.02%; Mtb heat-shock: 21.2%. Cc1nnc2n1CCN(CC(=O)NC(C)c1ccc3ccccc3c1)C2 (stereo not shown) gave Mtb growth Cornell: -0.4311%; Mtb heat-shock: -36.99%. Result for CN1CCN(Cc2cnc3n2CCN(Cc2cccnc2)CC3)CC1.O=C(O)C(F)(F)F.O=C(O)C(F)(F)F.O=C(O)C(F)(F)F was Mtb heat-shock: -32.88%. With Cc1ccc2oc(C(=O)N3CCC(C(=O)N4CCCC4)CC3)cc2n1 the screen gave Mtb growth Cornell: 0.4865%; Mtb heat-shock: -1.597%.

Cc1ccc(NC2CCN(C(=O)COc3ccccc3)CC2)nn1 read Mtb growth Cornell: -8.312%; Mtb heat-shock: -18.08%. Result for COc1ccccc1CN1CCCC(n2cccn2)C1 (stereo not shown) was Mtb growth Cornell: 5.486%; Mtb heat-shock: -0.9307%. Result for CCCc1nc(CN2CCc3c(ncn3C3CC3)C2)cs1 was Mtb heat-shock: 8.134%. Result for O=c1nc(CNc2ccccc2)[nH]n1Cc1ccccc1 was Mtb growth Cornell: -4.886%; Mtb heat-shock: 18.35%.

For [H][C@]12CC[C@](O)(CC1)C(CN1CCOCC1)N2C(=O)Nc1ccccc1 (stereo partly shown) the result was Mtb growth Cornell: 4.127%; Mtb heat-shock: 29.16%. Result for CN(Cc1noc(C2CC2)n1)C1CCN(Cc2nnc(C3CC3)o2)C1 (stereo not shown) was Mtb growth Cornell: -9.41%; Mtb heat-shock: 17.77%. O=C(NCCCNc1ccccc1)c1scnc1Cl read Mtb heat-shock: 6.481%. O[C@H]1CN(Cc2c[nH]nc2-c2ccccc2)CC[C@@]12CCCO2 read Mtb growth Cornell: -8.566%; Mtb heat-shock: 1.922%.

Cc1cccc(NC(=O)c2csc(NCC(C)C)n2)n1 gave Mtb growth Cornell: 22.32%; Mtb heat-shock: -0.3454%. COCCCN(Cc1ccncc1)c1cc(C)ncn1 read Mtb growth Cornell: -28.13%; Mtb heat-shock: -19.33%. CC(=O)N1CCc2[nH]cnc2C12CCN(C(=O)Cc1cccs1)CC2 read Mtb growth Cornell: 5.963%; Mtb heat-shock: -0.8326%. For COC(=O)CN(C(=O)c1cc(C(C)C)no1)c1cccc(F)c1 the result was Mtb growth Cornell: 38.91%; Mtb heat-shock: -17.64%.

For COc1ccc(C(=O)N2CC[C@H](CO)[C@H](O)C2)c(C)c1 the result was Mtb growth Cornell: -22.05%; Mtb heat-shock: 4.548%. Result for NC(=O)CN1CCCC(C(=O)N2CCC(O)(Cc3ccccc3)CC2)C1 (stereo not shown) was Mtb growth Cornell: 24.14%; Mtb heat-shock: -2.734%. With O=C(CCNC(=O)c1sccc1-c1ccccc1)NC1CCS(=O)(=O)C1 (stereo not shown) the screen gave Mtb growth Cornell: -16%; Mtb heat-shock: 0.434%. For Cc1ccc(C(=O)N2CCC3(CC2)CCN(Cc2ccccn2)C3=O)o1.O=C(O)C(F)(F)F the result was Mtb heat-shock: -34.97%.

N#Cc1ccc(CNC(=O)NC2CCN(c3ncccn3)CC2)cc1 gave Mtb heat-shock: 18.49%. Result for CC(C)Oc1ccc(C(=O)N2CCCSCC2CN(C)C)cc1 (stereo not shown) was Mtb heat-shock: -32.83%. With Cn1c(Cn2ccnc2)nnc1C1CCN(C(=O)c2cccnc2)CC1 the screen gave Mtb growth Cornell: -0.5599%; Mtb heat-shock: -4.349%. Cc1cc(C)c(C)c(OCCCNC(=O)NC(C)c2nncn2C)c1 (stereo not shown) read Mtb growth Cornell: -21.38%; Mtb heat-shock: 0.4853%.

Once more, the final 5:

structure,Mtb growth Cornell,Mtb heat-shock
Cc1ccc(C(=O)N2CCC3(CC2)CCN(Cc2ccccn2)C3=O)o1.O=C(O)C(F)(F)F,-,-34.97
N#Cc1ccc(CNC(=O)NC2CCN(c3ncccn3)CC2)cc1,-,18.49
CC(C)Oc1ccc(C(=O)N2CCCSCC2CN(C)C)cc1 (stereo not shown),-,-32.83
Cn1c(Cn2ccnc2)nnc1C1CCN(C(=O)c2cccnc2)CC1,-0.5599,-4.349
Cc1cc(C)c(C)c(OCCCNC(=O)NC(C)c2nncn2C)c1 (stereo not shown),-21.38,0.4853